Experimental data taken from article PMC5207708.
No constants are given. Whether binding was seen depends on the method and setting. In cells and extracts the contact can be indirect.

T1: MIER2 (UniProt Q8N344)
T1 sequence: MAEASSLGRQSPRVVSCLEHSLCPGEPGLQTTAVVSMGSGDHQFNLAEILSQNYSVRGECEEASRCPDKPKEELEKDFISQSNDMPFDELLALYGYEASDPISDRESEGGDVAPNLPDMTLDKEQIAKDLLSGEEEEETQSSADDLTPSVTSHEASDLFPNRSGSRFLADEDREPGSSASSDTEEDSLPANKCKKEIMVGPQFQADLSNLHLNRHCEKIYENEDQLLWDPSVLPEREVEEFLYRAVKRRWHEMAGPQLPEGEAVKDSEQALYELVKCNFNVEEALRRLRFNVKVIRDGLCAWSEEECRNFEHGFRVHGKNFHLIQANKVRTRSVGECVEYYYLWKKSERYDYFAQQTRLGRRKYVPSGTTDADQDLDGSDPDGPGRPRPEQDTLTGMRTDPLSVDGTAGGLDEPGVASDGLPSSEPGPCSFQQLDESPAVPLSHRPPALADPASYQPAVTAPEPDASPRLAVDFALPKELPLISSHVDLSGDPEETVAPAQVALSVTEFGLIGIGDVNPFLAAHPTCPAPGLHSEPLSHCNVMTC

B1: MIER2 (protein, UniProt Q8N344 1-545)
chain: MAEASSLGRQSPRVVSCLEHSLCPGEPGLQTTAVVSMGSGDHQFNLAEILSQNYSVRGECEEASRCPDKPKEELEKDFISQSNDMPFDELLALYGYEASDPISDRESEGGDVAPNLPDMTLDKEQIAKDLLSGEEEEETQSSADDLTPSVTSHEASDLFPNRSGSRFLADEDREPGSSASSDTEEDSLPANKCKKEIMVGPQFQADLSNLHLNRHCEKIYENEDQLLWDPSVLPEREVEEFLYRAVKRRWHEMAGPQLPEGEAVKDSEQALYELVKCNFNVEEALRRLRFNVKVIRDGLCAWSEEECRNFEHGFRVHGKNFHLIQANKVRTRSVGECVEYYYLWKKSERYDYFAQQTRLGRRKYVPSGTTDADQDLDGSDPDGPGRPRPEQDTLTGMRTDPLSVDGTAGGLDEPGVASDGLPSSEPGPCSFQQLDESPAVPLSHRPPALADPASYQPAVTAPEPDASPRLAVDFALPKELPLISSHVDLSGDPEETVAPAQVALSVTEFGLIGIGDVNPFLAAHPTCPAPGLHSEPLSHCNVMTC

Columns and labels:
MIER2 = molecular target: T1, MIER2; assay: co-IP; HEK293 cells co-transfected with a myc-tagged and a flag-tagged protein; lysis in 1% Triton X-100, 150 mM NaCl, 20 mM Tris-Cl pH 7.5, 1 mM EDTA; IP with 9E10 anti-myc overnight at 4°C; Western with anti-flag
MIER1α (human) = assay: as above

Molecule	binding (MIER2)	binding (MIER1α (human))
MIER1α (human)	no binding	
B1		no binding
